Reference: the supplement of paper PMC3682954
Where a name gives a salt, the structure may show the parent alone. ± gives the standard deviation of the averaged measurements. The list shows a part of the results. Most values come without repeats; read them as rough.

System: RAW 264.7
Test: cell viability (MTT) relative to vehicle control; higher = more viable cells
Details: stimulus: HMGB1 5 ug/ml, 18 h
[1] = compound concentration: 1 ug/ml

## CC[C@]12CCCN3CCc4c(n(c5ccccc45)[C@@](O)(C(=O)OC)C1)[C@@H]32
Compound concentration: 3 uM
  cell viability: 98.2%

## CC[C@]12CCCN3CCc4c(n(c5ccccc45)[C@@](O)(C(=O)OC)C1)[C@@H]32 [Vincamine]
[1]
  cell viability: 86.2%
Compound concentration: 3 uM
  cell viability: 98.2%

## COc1ccc(CCN(C)CCCC(C#N)(c2ccc(OC)c(OC)c2)C(C)C)cc1OC (racemic) [(±)-Verapamil hydrochloride]
Compound concentration: 3 uM
  cell viability: 109%

## CCC(C)(C)c1ccc(CC(C)CN2C[C@@H](C)O[C@@H](C)C2)cc1 (stereo partly drawn) [Amorolfine]
Compound concentration: 3 uM
  cell viability: 107%

## CC(C)N(CCC(=O)c1ccc2ccccc2c1)Cc1ccccc1
Compound concentration: 3 uM
  cell viability: 106%

## O=C(O)c1cc(=O)c2c(OCC(O)COc3cccc4oc(C(=O)O)cc(=O)c34)cccc2o1
Compound concentration: 3 uM
  cell viability: 94.5%

## O=C(O)c1cc(=O)c2c(OCC(O)COc3cccc4oc(C(=O)O)cc(=O)c34)cccc2o1 [Cromolyn disodium salt]
Compound concentration: 3 uM
  cell viability: 80.5%

## O=C(O)c1cc(=O)c2c(OCC(O)COc3cccc4oc(C(=O)O)cc(=O)c34)cccc2o1 [Disodium Cromoglycate]
Compound concentration: 3 uM
  cell viability: 100%

## O=c1c(O)c(-c2ccccc2)oc2cc(O)cc(O)c12 [Galangin]
[1]
  cell viability: 82.5%

## CCN1CCCC1CNC(=O)c1cc(S(N)(=O)=O)ccc1OC (racemic) [(±)-Sulpiride]
Compound concentration: 3 uM
  cell viability: 115%

## CC(=O)Oc1ccc(/C=C/C(=O)CC2OC(Oc3cc(OC(C)=O)c4c(c3)O[C@@H](c3ccc(OC(C)=O)cc3)CC4=O)C(OC(C)=O)C(OC(C)=O)C2OC(C)=O)cc1 (stereo partly drawn)
[1]
  cell viability: 96.5%

## COc1cc2oc(-c3ccccc3)cc(=O)c2cc1O
[1]
  cell viability: 86.1%

## C=CCNc1ncnc2c1ncn2[C@@H]1O[C@H](CO)[C@@H](O)[C@H]1O [N-Allyladenosine]
[1]
  cell viability: 93.5%

## O=c1cc(-c2cccc(O)c2)oc2c(O)c(O)ccc12
[1]
  cell viability: 85.6%

## C/N=C(/NC#N)NCCSCc1csc(NC(=N)N)n1 [Tiotidine]
Compound concentration: 3 uM
  cell viability: 95.8%

## Nc1nc(=O)c2c([nH]1)NCC(CNc1ccc(C(=O)N[C@@H](CCC(=O)O)C(=O)O)cc1)N2C=O (stereo partly drawn)
Compound concentration: 3 uM
  cell viability: 105%

## CN(C)C(=O)N=NC(=O)N(C)C [N,N,N',N'-Tetramethylazodicarboxamide]
Compound concentration: 3 uM
  cell viability: 101%

## CCN1/C(=C/C(C)=O)Sc2ccc(OC)cc21
Compound concentration: 3 uM
  cell viability: 106%

## Cc1ccc(O)c([C@H](CCN(C(C)C)C(C)C)c2ccccc2)c1
Compound concentration: 3 uM
  cell viability: 98.4%

## Cc1nc(N=Nc2ccc(S(=O)(=O)O)cc2S(=O)(=O)O)c(COP(=O)(O)O)c(C=O)c1O
Compound concentration: 3 uM
  cell viability: 101%

## CCCCC[C@H](CC(=O)NO)C(=O)N[C@H](C(=O)N1CCC[C@H]1CO)C(C)C [Actinonin]
Compound concentration: 3 uM
  cell viability: 105%

## CC(=O)OC(C)C[N+](C)(C)C (stereo not drawn)
Compound concentration: 3 uM
  cell viability: 108%

## CC(=O)OC(C)C[N+](C)(C)C (stereo not drawn) [Acetyl-beta-methylcholine chloride]
Compound concentration: 3 uM
  cell viability: 104%

## CC(=O)OC(C)C[N+](C)(C)C (stereo not drawn) [Methacholine chloride]
Compound concentration: 3 uM
  cell viability: 120%

## CCCCOc1ccc(CC(=O)NO)cc1 [Bufexamac]
Compound concentration: 3 uM
  cell viability: 92%

## CCCCOc1ccc(CC(=O)NO)cc1
Compound concentration: 3 uM
  cell viability: 109%

## Oc1c(Cl)cc(Cl)cc1Sc1cc(Cl)cc(Cl)c1O
Compound concentration: 3 uM
  cell viability: 97.2%

## NC[C@H]1CC[C@H](C(=O)O)CC1
Compound concentration: 3 uM
  cell viability: 101%

## NC[C@H]1CC[C@H](C(=O)O)CC1 [Tranexamic acid]
Compound concentration: 3 uM
  cell viability: 112%

## C=CCc1ccccc1OCC(O)CNC(C)C (stereo not drawn) [Alprenolol]
Compound concentration: 3 uM
  cell viability: 114%

## C=CCc1ccccc1OCC(O)CNC(C)C (stereo not drawn) [Alprenolol hydrochloride]
Compound concentration: 3 uM
  cell viability: 104.2 ± 0.9%

## C=CCc1ccccc1OCC(O)CNC(C)C (stereo not drawn)
Compound concentration: 3 uM
  cell viability: 96.2%

## CN(C)CCC(c1ccccc1)c1ccccn1 (stereo not drawn)
Compound concentration: 3 uM
  cell viability: 111%

## CN(C)CCC(c1ccccc1)c1ccccn1 (stereo not drawn) [Pheniramine maleate]
Compound concentration: 3 uM
  cell viability: 104 ± 20%

## Nc1ccn([C@@H]2O[C@H](CO)[C@@H](O)[C@H]2O)c(=O)n1 [Cytidine]
[1]
  cell viability: 103%

## CC(C)CCC[C@@H](C)[C@H]1CC[C@H]2[C@@H]3CC=C4C[C@@H](O)CC[C@]4(C)[C@H]3CC[C@]12C
Compound concentration: 3 uM
  cell viability: 97.8%

## Cc1c(O)cccc1C(=O)N[C@@H](CSc1ccccc1)[C@H](O)CN1C[C@H]2CCCC[C@H]2C[C@H]1C(=O)NC(C)(C)C [Nelfinavir mesylate]
Compound concentration: 3 uM
  cell viability: 99.7%

## Cc1c(O)cccc1C(=O)N[C@@H](CSc1ccccc1)[C@H](O)CN1C[C@H]2CCCC[C@H]2C[C@H]1C(=O)NC(C)(C)C
Compound concentration: 3 uM
  cell viability: 89.7%

## CCSc1ccc2c(c1)N(CCCN1CCN(C)CC1)c1ccccc1S2 [Thiethylperazine malate]
Compound concentration: 3 uM
  cell viability: 87.2%

## CCOc1ccc2cc(-c3ccccc3Cl)c(=O)oc2c1 [3(2'-Chlorophenyl)-7-ethoxycoumarin]
[1]
  cell viability: 114%

## COC1=C(OC)C(=O)c2ccccc2C1=O [2,3-Dimethoxy-1,4-naphthoquinone]
Compound concentration: 3 uM
  cell viability: 79.4%

## COc1ccc(/C=C2\COc3ccc(C)cc3C2=O)cc1O
Compound concentration: 3 uM
  cell viability: 109%
